Assay results taken from patent publication US4492650A, “A54556 Antibiotics and process for production thereof” (Eli Lilly and Company, priority 1982, dated 1985).
At least one read-out could not be matched to a standard name with certainty.

Test system: Culture A54556
Experiment: Sensitivity of Culture A54556 to antibiotics, sensitivity discs on ISP medium No. 2 agar; further: key: +: sensitive, zones of inhibition; -: resistant, no zones of inhibition
Type: cell-based, Streptomyces hawaiiensis NRRL 15010
Settings: 10 units disc
Protocol: The sensitivity of Culture A54556 to several antibiotics at specific concentrations was determined with sensitivity discs padded onto the surface of plates containing ISP medium No. 2 agar seeded with 2% inoculum of Culture A54556.

SMILES: CC1(C)S[C@@H]2[C@H](NC(=O)Cc3ccccc3)C(=O)N2[C@H]1C(=O)O [Penicillin G]
- Antibiotic Sensitivity of Culture A54556: -
